Data taken from the supplement of paper PMC10849652.
The other results are listed elsewhere or left out.

The chains behind the UniProt entries cited, without tags or fusion partners. Where a name states a change or a piece, a line headed by the entry shows the natural chain unless it says otherwise.
UniProt Q9NVM1: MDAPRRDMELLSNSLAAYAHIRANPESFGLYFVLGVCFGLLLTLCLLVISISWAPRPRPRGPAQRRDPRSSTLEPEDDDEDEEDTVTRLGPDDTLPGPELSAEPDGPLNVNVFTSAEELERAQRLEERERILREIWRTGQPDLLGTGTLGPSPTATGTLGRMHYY
UniProt P25116: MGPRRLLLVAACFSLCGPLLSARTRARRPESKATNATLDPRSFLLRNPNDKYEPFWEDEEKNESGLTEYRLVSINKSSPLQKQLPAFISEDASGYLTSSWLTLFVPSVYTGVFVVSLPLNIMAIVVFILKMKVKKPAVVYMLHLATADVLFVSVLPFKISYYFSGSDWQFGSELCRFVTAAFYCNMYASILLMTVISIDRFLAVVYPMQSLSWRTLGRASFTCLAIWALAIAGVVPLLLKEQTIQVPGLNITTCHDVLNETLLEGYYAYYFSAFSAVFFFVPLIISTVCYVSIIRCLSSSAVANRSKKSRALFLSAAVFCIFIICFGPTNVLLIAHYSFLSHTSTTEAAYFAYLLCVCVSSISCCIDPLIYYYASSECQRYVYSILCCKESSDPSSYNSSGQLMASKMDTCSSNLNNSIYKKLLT
UniProt B1AK53: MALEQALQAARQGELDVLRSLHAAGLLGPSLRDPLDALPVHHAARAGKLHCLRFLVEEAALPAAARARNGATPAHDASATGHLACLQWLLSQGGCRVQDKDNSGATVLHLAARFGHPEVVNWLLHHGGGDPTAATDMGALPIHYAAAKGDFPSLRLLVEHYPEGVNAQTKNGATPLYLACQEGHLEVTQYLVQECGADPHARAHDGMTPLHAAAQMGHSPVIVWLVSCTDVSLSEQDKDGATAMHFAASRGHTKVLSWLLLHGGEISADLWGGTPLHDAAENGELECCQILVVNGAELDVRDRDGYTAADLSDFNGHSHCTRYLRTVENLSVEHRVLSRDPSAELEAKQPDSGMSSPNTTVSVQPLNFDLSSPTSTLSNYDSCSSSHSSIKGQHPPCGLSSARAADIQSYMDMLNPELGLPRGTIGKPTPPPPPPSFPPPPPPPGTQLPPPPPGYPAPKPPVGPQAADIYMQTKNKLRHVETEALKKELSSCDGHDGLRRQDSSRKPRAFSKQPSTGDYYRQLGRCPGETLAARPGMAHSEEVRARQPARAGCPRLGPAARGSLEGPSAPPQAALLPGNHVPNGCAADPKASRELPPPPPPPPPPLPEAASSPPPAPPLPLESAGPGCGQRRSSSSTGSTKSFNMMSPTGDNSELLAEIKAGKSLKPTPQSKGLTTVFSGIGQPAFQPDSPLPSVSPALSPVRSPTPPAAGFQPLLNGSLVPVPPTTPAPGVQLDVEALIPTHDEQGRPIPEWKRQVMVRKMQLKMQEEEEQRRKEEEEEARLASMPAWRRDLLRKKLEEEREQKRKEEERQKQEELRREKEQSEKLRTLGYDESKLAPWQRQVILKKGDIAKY
UniProt Q9BVV8: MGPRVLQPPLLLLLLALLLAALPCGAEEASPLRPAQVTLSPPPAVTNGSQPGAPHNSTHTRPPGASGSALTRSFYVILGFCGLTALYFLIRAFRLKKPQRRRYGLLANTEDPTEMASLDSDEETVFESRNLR
UniProt P41212: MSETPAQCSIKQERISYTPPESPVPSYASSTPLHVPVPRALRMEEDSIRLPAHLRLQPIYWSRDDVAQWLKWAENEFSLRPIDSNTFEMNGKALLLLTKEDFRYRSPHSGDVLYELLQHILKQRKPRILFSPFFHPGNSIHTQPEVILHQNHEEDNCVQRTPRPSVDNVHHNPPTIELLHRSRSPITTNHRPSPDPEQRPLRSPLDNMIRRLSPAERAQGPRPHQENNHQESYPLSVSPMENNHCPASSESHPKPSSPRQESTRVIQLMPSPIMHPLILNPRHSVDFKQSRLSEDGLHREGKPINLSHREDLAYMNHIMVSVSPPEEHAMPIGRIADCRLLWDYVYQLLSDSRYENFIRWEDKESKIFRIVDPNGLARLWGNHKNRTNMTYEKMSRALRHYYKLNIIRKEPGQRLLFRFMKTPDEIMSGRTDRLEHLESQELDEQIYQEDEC
UniProt Q8IW50: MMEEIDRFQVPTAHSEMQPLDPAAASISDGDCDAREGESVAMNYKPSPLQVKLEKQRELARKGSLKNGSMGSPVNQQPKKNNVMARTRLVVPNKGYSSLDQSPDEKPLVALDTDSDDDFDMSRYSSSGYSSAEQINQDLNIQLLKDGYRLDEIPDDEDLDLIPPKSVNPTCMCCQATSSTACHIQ
UniProt Q14264: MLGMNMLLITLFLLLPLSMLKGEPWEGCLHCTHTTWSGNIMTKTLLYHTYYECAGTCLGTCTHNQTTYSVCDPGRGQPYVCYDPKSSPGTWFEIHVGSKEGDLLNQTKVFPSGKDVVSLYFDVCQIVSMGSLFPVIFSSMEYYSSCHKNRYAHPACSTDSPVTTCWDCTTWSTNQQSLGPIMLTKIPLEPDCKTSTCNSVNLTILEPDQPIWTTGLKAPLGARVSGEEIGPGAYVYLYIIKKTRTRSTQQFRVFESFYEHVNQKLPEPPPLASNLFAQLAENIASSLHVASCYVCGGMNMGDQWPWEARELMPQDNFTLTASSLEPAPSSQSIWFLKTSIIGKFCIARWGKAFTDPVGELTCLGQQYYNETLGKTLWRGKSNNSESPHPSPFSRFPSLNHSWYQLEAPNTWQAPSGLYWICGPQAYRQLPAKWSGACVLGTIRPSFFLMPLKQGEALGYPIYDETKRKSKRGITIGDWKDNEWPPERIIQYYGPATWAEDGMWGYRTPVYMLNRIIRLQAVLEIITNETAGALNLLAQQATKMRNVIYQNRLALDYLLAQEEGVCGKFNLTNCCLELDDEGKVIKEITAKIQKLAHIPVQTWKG
UniProt O95718: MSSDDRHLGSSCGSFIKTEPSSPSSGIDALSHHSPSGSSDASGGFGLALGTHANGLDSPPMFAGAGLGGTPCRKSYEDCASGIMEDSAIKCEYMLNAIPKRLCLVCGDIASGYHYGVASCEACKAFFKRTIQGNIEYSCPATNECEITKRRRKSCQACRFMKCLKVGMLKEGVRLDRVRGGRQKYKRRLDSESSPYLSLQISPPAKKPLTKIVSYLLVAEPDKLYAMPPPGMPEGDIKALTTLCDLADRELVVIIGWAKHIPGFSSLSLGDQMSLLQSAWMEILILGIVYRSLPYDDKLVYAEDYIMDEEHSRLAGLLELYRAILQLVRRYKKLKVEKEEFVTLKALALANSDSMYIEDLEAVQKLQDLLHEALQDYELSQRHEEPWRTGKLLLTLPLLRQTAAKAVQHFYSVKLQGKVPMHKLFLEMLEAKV
UniProt Q9P2D6: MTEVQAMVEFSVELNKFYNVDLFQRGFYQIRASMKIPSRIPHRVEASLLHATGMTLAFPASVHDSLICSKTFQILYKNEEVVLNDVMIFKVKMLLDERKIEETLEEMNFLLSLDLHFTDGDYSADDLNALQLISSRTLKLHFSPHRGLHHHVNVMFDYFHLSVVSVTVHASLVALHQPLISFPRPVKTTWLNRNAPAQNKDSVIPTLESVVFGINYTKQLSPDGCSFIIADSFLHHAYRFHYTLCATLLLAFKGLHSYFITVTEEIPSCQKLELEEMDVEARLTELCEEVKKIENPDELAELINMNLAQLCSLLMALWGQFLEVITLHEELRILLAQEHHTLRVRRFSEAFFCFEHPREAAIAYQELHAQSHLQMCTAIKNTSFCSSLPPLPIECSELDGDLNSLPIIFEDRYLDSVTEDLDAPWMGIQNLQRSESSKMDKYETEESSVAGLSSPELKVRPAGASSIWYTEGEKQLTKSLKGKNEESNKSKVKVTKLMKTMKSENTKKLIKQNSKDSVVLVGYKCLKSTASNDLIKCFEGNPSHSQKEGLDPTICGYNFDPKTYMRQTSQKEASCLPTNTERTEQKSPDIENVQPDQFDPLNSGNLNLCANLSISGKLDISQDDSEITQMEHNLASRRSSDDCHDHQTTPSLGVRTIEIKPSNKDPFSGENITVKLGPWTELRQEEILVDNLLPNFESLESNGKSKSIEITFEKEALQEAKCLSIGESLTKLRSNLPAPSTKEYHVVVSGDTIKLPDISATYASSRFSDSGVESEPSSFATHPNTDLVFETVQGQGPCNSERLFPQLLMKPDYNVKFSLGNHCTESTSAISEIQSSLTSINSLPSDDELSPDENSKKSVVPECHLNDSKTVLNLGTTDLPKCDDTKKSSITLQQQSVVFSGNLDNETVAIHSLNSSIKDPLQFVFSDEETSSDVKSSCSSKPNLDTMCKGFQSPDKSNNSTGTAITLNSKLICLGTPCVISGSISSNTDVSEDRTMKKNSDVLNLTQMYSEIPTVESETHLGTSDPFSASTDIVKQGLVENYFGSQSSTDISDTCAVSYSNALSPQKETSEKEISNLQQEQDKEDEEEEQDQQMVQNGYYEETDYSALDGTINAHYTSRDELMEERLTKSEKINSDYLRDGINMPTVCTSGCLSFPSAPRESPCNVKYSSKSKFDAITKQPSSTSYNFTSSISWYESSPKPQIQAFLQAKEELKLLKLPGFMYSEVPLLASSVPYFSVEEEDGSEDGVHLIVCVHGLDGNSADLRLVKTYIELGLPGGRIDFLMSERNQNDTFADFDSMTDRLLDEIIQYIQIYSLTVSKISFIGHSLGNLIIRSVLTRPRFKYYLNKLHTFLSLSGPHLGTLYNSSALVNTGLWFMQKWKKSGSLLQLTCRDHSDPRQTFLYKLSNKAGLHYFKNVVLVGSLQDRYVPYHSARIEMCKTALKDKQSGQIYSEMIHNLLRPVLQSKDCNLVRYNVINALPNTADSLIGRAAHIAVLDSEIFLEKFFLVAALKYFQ
UniProt P00742, whole entry, looked up: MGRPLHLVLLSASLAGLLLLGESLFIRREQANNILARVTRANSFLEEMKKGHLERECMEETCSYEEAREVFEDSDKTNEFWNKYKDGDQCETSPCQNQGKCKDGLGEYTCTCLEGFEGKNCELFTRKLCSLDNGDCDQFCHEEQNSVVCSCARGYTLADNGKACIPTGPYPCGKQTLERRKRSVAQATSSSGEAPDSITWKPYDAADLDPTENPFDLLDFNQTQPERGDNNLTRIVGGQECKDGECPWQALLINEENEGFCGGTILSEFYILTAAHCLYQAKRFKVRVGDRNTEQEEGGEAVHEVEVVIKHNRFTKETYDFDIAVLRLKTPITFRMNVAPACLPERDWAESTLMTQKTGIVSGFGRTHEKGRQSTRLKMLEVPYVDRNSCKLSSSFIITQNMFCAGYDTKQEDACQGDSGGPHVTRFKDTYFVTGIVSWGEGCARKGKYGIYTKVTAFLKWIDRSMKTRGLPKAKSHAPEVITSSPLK
UniProt Q9H790: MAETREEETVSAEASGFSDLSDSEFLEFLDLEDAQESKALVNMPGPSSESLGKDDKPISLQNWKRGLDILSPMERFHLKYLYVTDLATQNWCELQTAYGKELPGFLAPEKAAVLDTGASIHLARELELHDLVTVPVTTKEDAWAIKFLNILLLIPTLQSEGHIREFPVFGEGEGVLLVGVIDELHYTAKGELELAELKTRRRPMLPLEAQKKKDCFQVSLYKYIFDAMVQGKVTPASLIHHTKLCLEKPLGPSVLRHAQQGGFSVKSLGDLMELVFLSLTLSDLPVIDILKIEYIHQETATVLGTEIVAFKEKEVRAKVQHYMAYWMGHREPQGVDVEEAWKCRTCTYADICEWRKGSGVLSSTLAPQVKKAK

Key:
Experiment in all cases: log2 fold change, soluble protein after heating vs DMSO (PISA); higher = thermal stabilisation; K562 lysate, 10 uM; active = over 0.2 and 3.5 SD of the protein, either way, in both replicates (recomputed)
[1] = compound: C#Cc1cccc(Nc2ncnc3cc(OCCOC)c(OCCOC)cc23)c1 [erlotinib]
Summary of the method: (§1)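 K562 pellets were dounce-homogenised in PBS pH 7.4 containing 1 mM MgCl2, and the crude extract, at 1 mg/mL protein, was exposed to 10 μM compound for 30 min. Aliquots were heated for 3 min across 48°C-58°C, pooled, brought to 0.5% NP-40 at 4°C and spun at 21,000xg for 90 min, with the supernatant taken as soluble protein. TMTpro 16plex LC-MS/MS with equalised channel sums quantified that protein. Values are log-two fold changes in thermal stability relative to solvent controls, taken from duplicates.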

[2] = compound: C1=CC(=CC=C1C2=NC3=C(N2)C=C(C=C3)C(=O)N)OC4=CC=C(C=C4)Cl
Summary of the method: as §1

[3] = compound: C1=CC=C(C=C1)C2=NC(=C(N2)C3=CC=NC=C3)C4=CC(=C(C=C4)Cl)O
Summary of the method: as §1

[4] = compound: C1COCCN1CCN2C3=CC=CC=C3N=C2NC(=O)C4=CC(=CC=C4)[N+](=O)[O-] [IRAK-1-4 Inhibitor I]
Summary of the method: as §1

[5] = compound: CC(C)(C)Cn1c(N)nc2ccc(-c3[nH]c(C(C)(C)C)nc3-c3ccc(F)cc3)nc21 [ralimetinib]
Summary of the method: as §1

[6] = compound: CC(C)(O)CC(=O)NCCn1ccc2ncnc(Nc3ccc(Oc4cccc(C(F)(F)F)c4)c(Cl)c3)c21
Summary of the method: as §1

[7] = compound: CC(C)C1=C2N=C(C=C(N2N=C1)NCC3=CC=CC=C3)NCCCCCCN
Summary of the method: as §1

[8] = compound: CC1=C(C2=C(C=C1)C(=O)C3=CC=CC=C3N2CCCN)C
Summary of the method: as §1

[9] = compound: CC1=C(C=C(C=C1)NC(=O)C2=CC(=CC=C2)C(C)(C)C#N)NC3=CC4=C(C=C3)N=CN(C4=O)C
Summary of the method: as §1

[10] = compound: CC1=C(C=C(C=C1)NC(=O)C2=CC(=CC=C2)N(C)C)NC(=O)C3=CC=C(C=C3)O
Summary of the method: as §1

[11] = compound: C1CCN(C1)C(=O)NC2=CC=CC(=C2)NC3=NC=C(C(=N3)NCCC4=CN=CN4)Br
Summary of the method: as §1

[12] = compound: C1CN(CCC1(CC2=CC=C(C=C2)Cl)N)C3=NC=NC4=C3C=CN4
Summary of the method: as §1

[13] = compound: CC(=O)c1cnc2ccc(-c3cc(Cl)c(O)c(Cl)c3)nc2c1N[C@H]1CC[C@H](CN(C)C)CC1
Summary of the method: as §1

[14] = compound: CC1=C(C(CC(=O)N1)C2=CC=C(C=C2)C(F)(F)F)C(=O)NC3=C(C=C4C(=C3)C=NN4)F
Summary of the method: as §1

[15] = compound: CC1=CC=C(C=C1)SC2=C3C=C(SC3=CN=C2)C(=O)N
Summary of the method: as §1

[16] = compound: C/C(=N\NC(=O)C1=CC(=CC=C1)S(=O)(=O)N2CCOCC2)/C3=C(C=CC(=C3)Cl)O
Summary of the method: as §1

[17] = compound: C1=CC2=C(C=CC(=C2)/C=C\3/C(=O)NC(=NCC4=CC=CS4)S3)N=C1
Summary of the method: as §1

[18] = compound: C1=CC=C2C(=C1)C3=NNC4=CC=CC(=C43)C2=O
Summary of the method: as §1

[19] = compound: C1=CC2=NC=CN=C2C=C1/C=C/3\C(=O)NC(=O)S3
Summary of the method: as §1

[20] = compound: C=CC(=O)N1CCC[C@@H](n2nc(-c3ccc(Oc4ccccc4)cc3)c3c(N)ncnc32)C1 [ibrutinib]
Summary of the method: as §1

EVA1B (UniProt Q9NVM1)
log2 fold change [1]: inactive: 0.15 | log2 fold change [2]: inactive: 0.127 | log2 fold change [3]: inactive: -0.291 | log2 fold change [4]: inactive: 0.217 | log2 fold change [5]: inactive: -0.036 | log2 fold change [6]: inactive: -0.078 | log2 fold change [7]: inactive: -0.08 | log2 fold change [8]: inactive: -0.317 | log2 fold change [9]: inactive: 0.028 | log2 fold change [10]: inactive: 0.122

F2R (UniProt P25116)
log2 fold change [9]: inactive: -0.015

ESPN (UniProt B1AK53)
log2 fold change [3]: inactive: -0.078 | log2 fold change [11]: inactive: -0.018 | log2 fold change [12]: inactive: 0.037 | log2 fold change [4]: inactive: -0.009 | log2 fold change [5]: inactive: 0.019 | log2 fold change [6]: inactive: 0.075 | log2 fold change [8]: inactive: -0.024 | log2 fold change [10]: inactive: 0.092

FAM174C (UniProt Q9BVV8)
log2 fold change [1]: inactive: -0.186 | log2 fold change [2]: inactive: -0.283 | log2 fold change [13]: inactive: 0.154 | log2 fold change [7]: inactive: -0.085 | log2 fold change [14]: inactive: -0.162 | log2 fold change [15]: inactive: 0.064

FAM120A, A0A494C0Y9
log2 fold change [1]: inactive: 0.226 | log2 fold change [2]: inactive: 0.105 | log2 fold change [3]: inactive: -0.166 | log2 fold change [4]: inactive: 0.131 | log2 fold change [5]: inactive: 0.053 | log2 fold change [6]: inactive: -0.018 | log2 fold change [7]: inactive: -0.043 | log2 fold change [8]: inactive: 0.011 | log2 fold change [10]: inactive: -0.126

ETV6 (UniProt P41212)
log2 fold change [16]: inactive: 0.013 | log2 fold change [17]: inactive: -0.097 | log2 fold change [3]: inactive: -0.063 | log2 fold change [18]: inactive: -0.012 | log2 fold change [11]: inactive: -0.054 | log2 fold change [12]: inactive: 0.034 | log2 fold change [4]: inactive: 0.088 | log2 fold change [13]: inactive: 0.091 | log2 fold change [5]: inactive: 0.042 | log2 fold change [6]: inactive: -0.072 | log2 fold change [14]: inactive: 0.117 | log2 fold change [8]: inactive: 0.062 | log2 fold change [9]: inactive: 0.04 | log2 fold change [10]: inactive: -0.004 | log2 fold change [15]: inactive: -0.047

FAM219A (UniProt Q8IW50)
log2 fold change [1]: inactive: 0.139 | log2 fold change [2]: inactive: 0.192 | log2 fold change [19]: inactive: 0.053 | log2 fold change [3]: inactive: -0.067 | log2 fold change [11]: inactive: 0.027 | log2 fold change [12]: inactive: 0.251 | log2 fold change [4]: inactive: 0.106 | log2 fold change [20]: inactive: 0.126 | log2 fold change [13]: inactive: -0.063 | log2 fold change [5]: inactive: 0.01 | log2 fold change [6]: inactive: -0.091 | log2 fold change [7]: inactive: -0.221 | log2 fold change [8]: inactive: -0.072 | log2 fold change [9]: inactive: -0.036 | log2 fold change [10]: inactive: 0.059 | log2 fold change [15]: inactive: -0.093

ERV3-1 (UniProt Q14264)
log2 fold change [1]: inactive: -0.196 | log2 fold change [2]: inactive: -0.088 | log2 fold change [11]: inactive: 0.146 | log2 fold change [12]: inactive: 0.037 | log2 fold change [7]: inactive: 0 | log2 fold change [8]: inactive: 0.155 | log2 fold change [9]: inactive: -0.185

FAM49B, A0A1W2PRQ0
log2 fold change [16]: inactive: -0.193 | log2 fold change [17]: inactive: -0.106 | log2 fold change [19]: inactive: 0.062 | log2 fold change [3]: inactive: -0.274 | log2 fold change [18]: inactive: 0 | log2 fold change [11]: inactive: -0.111 | log2 fold change [12]: inactive: -0.029 | log2 fold change [4]: inactive: -0.121 | log2 fold change [20]: inactive: -0.09 | log2 fold change [5]: inactive: -0.156 | log2 fold change [6]: inactive: 0.187 | log2 fold change [10]: inactive: -0.071

ESRRB isoform 1 (UniProt O95718)
log2 fold change [1]: inactive: 0.1 | log2 fold change [2]: active: -0.783 | log2 fold change [19]: inactive: -0.021 | log2 fold change [3]: inactive: 0.016 | log2 fold change [4]: inactive: 0.236 | log2 fold change [20]: inactive: -0.047 | log2 fold change [5]: inactive: 0.035 | log2 fold change [6]: inactive: -0.087 | log2 fold change [7]: inactive: -0.187 | log2 fold change [10]: inactive: 0.053

EWSR1 (UniProt H7BY36)
log2 fold change [16]: inactive: -0.711 | log2 fold change [17]: inactive: -0.346 | log2 fold change [19]: inactive: 0.111 | log2 fold change [3]: inactive: -0.208 | log2 fold change [18]: inactive: -0.428 | log2 fold change [11]: inactive: -0.011 | log2 fold change [12]: inactive: -0.035 | log2 fold change [4]: inactive: -0.074 | log2 fold change [20]: inactive: -0.288 | log2 fold change [5]: inactive: -0.073 | log2 fold change [6]: inactive: -0.052 | log2 fold change [8]: inactive: -0.126 | log2 fold change [9]: inactive: 0.071 | log2 fold change [10]: inactive: 0.39

FAM135A (UniProt Q9P2D6)
log2 fold change [19]: inactive: -0.057 | log2 fold change [3]: inactive: 0.095 | log2 fold change [4]: inactive: 0.048 | log2 fold change [20]: inactive: -0.052 | log2 fold change [5]: inactive: 0.027 | log2 fold change [6]: inactive: -0.071 | log2 fold change [14]: inactive: -0.35 | log2 fold change [8]: inactive: -0.097 | log2 fold change [9]: inactive: -0.005 | log2 fold change [10]: inactive: -0.041

F10 (UniProt P00742)
log2 fold change [19]: inactive: 0.037 | log2 fold change [20]: inactive: -0.057

EXO5 (UniProt Q9H790)
log2 fold change [1]: inactive: 0.279 | log2 fold change [2]: inactive: 0.012 | log2 fold change [19]: inactive: -0.226 | log2 fold change [3]: inactive: 0.085 | log2 fold change [4]: inactive: -0.028 | log2 fold change [20]: inactive: 0.111 | log2 fold change [5]: inactive: 0.018 | log2 fold change [6]: inactive: -0.126 | log2 fold change [7]: inactive: -0.025 | log2 fold change [9]: inactive: 0.217 | log2 fold change [10]: inactive: -0.067

ETV1 (UniProt P50549)
log2 fold change [1]: inactive: -0.081 | log2 fold change [2]: inactive: 0.149 | log2 fold change [3]: inactive: 0.029 | log2 fold change [4]: inactive: -0.086 | log2 fold change [5]: inactive: 0.133 | log2 fold change [6]: inactive: 0.022 | log2 fold change [7]: inactive: -0.11 | log2 fold change [14]: inactive: 0.255 | log2 fold change [8]: inactive: -0.008 | log2 fold change [10]: inactive: -0.085

FAM171A2 (UniProt A8MVW0)
log2 fold change [1]: inactive: 0.059 | log2 fold change [2]: inactive: 0.012 | log2 fold change [7]: inactive: 0.329
